This is one part of the list. The main result of the screen is listed elsewhere. These columns were measured beside it and carry no call. Compounds called inactive in the main read-out are mostly missing here. Words in brackets tell the shape of the fitted curve; partial curves, single points and poor fits give uncertain potencies.

Broadly, the AC50 is the concentration giving half of the maximal activity seen.

The nature of this test: Cell signaling CRE-BLA (Fsk stim). The conditions noted are these: CHO CRE-bla reporter (cAMP response element driving beta-lactamase), forskolin EC10, beta-lactamase ratio; measured here: 460 nm blue channel. Put shortly: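 CHO CRE-bla cells, overnight plating in Opti-MEM with 0.5% dialyzed FBS; cpd titration + EC10 NKH 477, 3 h 37 °C; CCF4 2 h RT; ex 405/em 460 vs 530 ratio → %Activity, AC50.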
With `CCOc1ncccc1C(=O)OCc1cn2cc(Cl)ccc2n1`, the AC50 is 10 µM [rising, partial curve].
The figure for `Cc1cccn2c(=O)c3cc(C(=O)N4COCC4(C)C)n(C)c3nc12` is 1 µM [rising, full curve]; for `COC(=O)c1cc(OC)c(OC)cc1NC(=O)CC1CCCCC1` it is 10 µM [rising, single point].
With `Cc1cc(-n2c(C)cc(C(=O)CSc3nnc4sc5ccccc5n34)c2C)no1`, the AC50 is 3.98 µM [falling, single point].
The same measure for `COc1cccc(CNC(=O)CCS(=O)(=O)c2cccc3nonc23)c1`: 25.1 µM [falling, single point]; for `CCCCOC(=O)n1c(=O)oc2cc(S(=O)(=O)N3CCCCC3)ccc21`: 31.6 µM [falling, single point].
The figure for `O=C(O)c1cnn2c1NC(c1ccc(F)cc1)CC2C(F)(F)F` (stereo not drawn) is 0.00398 µM [falling, full curve, poor fit].
The same measure for `Cc1cc2ccccc2n1CCNC(=O)COc1ccccc1`: 12.6 µM [rising, partial curve]; for `C[C@@H](C(=O)Nc1ccc2ccccc2c1)[C@H]1C[C@]1(C)[C@H](NC(=O)c1ccccc1)c1ccccc1`: 0.501 µM [falling, full curve].
In the case of `COc1ccc(N2CCN(C(=O)c3cn(C4CCCC4)c(=O)c4c3c3ccccc3n4C)CC2)cc1`, the AC50 is 3.16 µM [rising, partial curve].
In the case of `CCCOC(=O)CSc1nc(N)c(C#N)c(CC)c1C#N`, the half-maximal activity concentration (AC50) was 15.8 µM [rising, partial curve].
The figure for `NC[C@@H]1O[C@H](C23CC4CC(CC(C4)C2)C3)Cc2c1ccc(O)c2O` is 25.1 µM [falling, partial curve, poor fit]; for `COC(=O)n1c(SC)nc2ccccc21` it is 10 µM [rising, partial curve].
The figure for `C#CCSc1nsc(SCC#C)c1C#N` is 0.00316 µM [falling, full curve, poor fit].
The figure for `O=C(CSc1nnc(C2COc3ccccc3O2)o1)N1CCCc2ccccc21` (stereo not drawn) is 0.0501 µM [falling, full curve]; for `CC(C)(C)c1ccc(O)c(O)c1` it is 1.58 µM [falling, full curve, poor fit].
`CC(C)c1nc2sc3c(NCc4ccco4)ncnc3c2c2c1COC(C)(C)C2`: the AC50 was 1.58 µM [falling, full curve, poor fit].
The same measure for `Cn1nc(-c2ccc(OCC(=O)Nc3cccnc3)cc2)c2ccccc2c1=O`: 12.6 µM [rising, single point]; for `CCc1ccc(-c2nc(CN3CCC(C(=O)NCc4ccc(F)cc4)CC3)c(C)o2)cc1`: 3.98 µM [falling, full curve, poor fit].
The figure for `CC1CCN(C(=O)Cn2c(SCC(=O)Nc3nccs3)nc3ccccc32)CC1` is 10 µM [rising, single point]; for `Nc1nc(-c2ccccc2)cc(-c2ccccc2O)n1` it is 0.0501 µM [falling, full curve, poor fit]; for `Cc1ccc2nc3c(c(C(=O)O)c2c1)CCC3` it is 5.01 µM [falling, single point].
The figure for `COC(=O)C1=C(C)N(C2CCCC2)C(=O)C1(NC(C)=O)C(F)(F)F` (stereo not drawn) is 12.6 µM [falling, partial curve]; for `O=c1c(-c2cc(F)cc(F)c2)nc2cnc(N3CCNCC3)nc2n1-c1ccccc1` it is 2 µM [rising, full curve]; for `CCc1ccc(CCC(=O)Nc2nnc(C)s2)o1` it is 10 µM [falling, partial curve].
For `Cc1ccc2c(c1)N(CCC(=O)NCc1ccco1)C(=O)CO2`, the AC50 is 0.00398 µM [falling, full curve, poor fit].
The figure for `Clc1ccc2oc(-c3ccccn3)nc2c1` is 12.6 µM [rising, single point]; for `COC(=O)c1ccc(C(=O)OC)c(NC(=O)COC(=O)C23CC4CC(CC(O)(C4)C2)C3)c1` it is 10 µM [rising, single point]; for `COCCNC(=O)NC1(C(F)(F)F)Oc2ccc(Cl)cc2O1` (stereo not drawn) it is 25.1 µM [falling, single point].
As to `Cc1nnc(SCc2ccc(C(=O)c3ccc(Cl)cc3)o2)n1-c1ccccc1`, the concentration at half-maximal activity (AC50) was 20 µM [rising, partial curve].
The same measure for `C[C@@](Cc1ccc(O)c(O)c1)(NN)C(=O)O`: 25.1 µM [falling, partial curve, poor fit]; for `Cc1nnc(Oc2ccccc2)c2ccccc12`: 3.16 µM [falling, single point]; for `CCC(C)(C(=O)Nc1ccc2c(c1)OCCO2)N(C(C)=O)c1ccc(C(N)=O)cc1` (stereo not drawn): 31.6 µM [falling, single point].
For the compound `CCCCOC(=O)c1cccc(NC(=O)CC)c1`, the half-maximal activity concentration (AC50) was 6.31 µM [rising, partial curve].
`Cc1sc2nc(C3CC3)nc(NCCNS(C)(=O)=O)c2c1C`: the AC50 is 12.6 µM [rising, partial curve].
The same measure for `Cc1cccc2cc(CN(CCCO)C(=O)Nc3ccccc3Cl)c(=O)[nH]c12`: 1.58 µM [falling, full curve]; for `CCCn1c(C)nc2c(NCCO)nc(C)nc21`: 10 µM [rising, partial curve].
In the case of `O=S(=O)(c1ccc(F)cc1)N1CCC(N2CCN(c3ccccc3)CC2)CC1`, the half-maximal activity concentration (AC50) is 1 µM [falling, full curve, poor fit].
The same measure for `COc1ccc(N2C(=O)C3CCCN3C2c2cc(OC)c(OC)cc2OC)cc1` (stereo not drawn): 10 µM [rising, single point]; for `Cc1ccc(NC(=O)CSc2nnc(Cc3cccn3C)n2-c2ccc(F)cc2)cc1`: 10 µM [falling, partial curve]; for `O=C(C1CC1)N1CCc2cc(S(=O)(=O)N(CCO)Cc3ccccc3)ccc21`: 12.6 µM [rising, single point].
The figure for `CCCCN1CN(S(=O)(=O)c2cccs2)c2nc3ccccc3nc21` is 10 µM [rising, partial curve].
On to `CCOC(=O)N1CCN(CC(=O)Nc2c(C(=O)OC)[nH]c3cccc(Cl)c23)CC1`, for which the AC50 is 3.98 µM [falling, partial curve].

The record behind these values is PubChem BioAssay AID662 (National Center for Advancing Translational Sciences (NCATS), 2007).
